Some of the results follow. Most entries show no effect beyond the scatter of the controls.

By UniProt entry, the sequences of proteins in these tests, tags left out. Where a name states a change or a piece, a line headed by the entry shows the natural chain unless it says otherwise.
UniProt P52912: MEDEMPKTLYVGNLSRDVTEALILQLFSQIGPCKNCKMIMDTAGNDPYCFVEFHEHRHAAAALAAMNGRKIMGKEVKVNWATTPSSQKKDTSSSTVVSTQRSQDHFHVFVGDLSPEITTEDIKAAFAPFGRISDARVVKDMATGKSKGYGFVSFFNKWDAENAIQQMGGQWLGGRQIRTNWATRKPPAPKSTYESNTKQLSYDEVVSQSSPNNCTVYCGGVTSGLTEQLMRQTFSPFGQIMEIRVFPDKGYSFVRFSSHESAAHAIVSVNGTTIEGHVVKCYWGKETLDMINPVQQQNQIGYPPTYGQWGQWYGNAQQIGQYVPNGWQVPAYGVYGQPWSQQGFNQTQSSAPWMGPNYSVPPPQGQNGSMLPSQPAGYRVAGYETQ
UniProt P39654: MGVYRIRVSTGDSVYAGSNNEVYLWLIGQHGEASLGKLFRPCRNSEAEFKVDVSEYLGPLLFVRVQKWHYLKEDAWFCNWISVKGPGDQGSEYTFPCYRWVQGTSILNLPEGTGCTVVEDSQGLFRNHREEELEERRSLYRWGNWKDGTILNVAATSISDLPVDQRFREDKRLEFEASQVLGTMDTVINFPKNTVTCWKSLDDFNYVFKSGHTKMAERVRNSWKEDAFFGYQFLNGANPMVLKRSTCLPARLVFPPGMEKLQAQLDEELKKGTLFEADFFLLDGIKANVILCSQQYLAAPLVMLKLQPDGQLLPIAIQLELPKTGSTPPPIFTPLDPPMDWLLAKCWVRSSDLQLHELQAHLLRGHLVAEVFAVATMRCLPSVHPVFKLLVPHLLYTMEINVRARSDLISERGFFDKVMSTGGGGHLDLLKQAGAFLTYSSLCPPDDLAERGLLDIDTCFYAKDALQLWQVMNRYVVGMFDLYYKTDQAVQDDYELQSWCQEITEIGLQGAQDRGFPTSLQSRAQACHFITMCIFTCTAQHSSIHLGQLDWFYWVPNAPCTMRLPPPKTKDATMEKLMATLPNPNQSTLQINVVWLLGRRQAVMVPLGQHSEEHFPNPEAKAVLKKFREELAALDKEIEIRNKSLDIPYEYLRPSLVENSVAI
UniProt P50396: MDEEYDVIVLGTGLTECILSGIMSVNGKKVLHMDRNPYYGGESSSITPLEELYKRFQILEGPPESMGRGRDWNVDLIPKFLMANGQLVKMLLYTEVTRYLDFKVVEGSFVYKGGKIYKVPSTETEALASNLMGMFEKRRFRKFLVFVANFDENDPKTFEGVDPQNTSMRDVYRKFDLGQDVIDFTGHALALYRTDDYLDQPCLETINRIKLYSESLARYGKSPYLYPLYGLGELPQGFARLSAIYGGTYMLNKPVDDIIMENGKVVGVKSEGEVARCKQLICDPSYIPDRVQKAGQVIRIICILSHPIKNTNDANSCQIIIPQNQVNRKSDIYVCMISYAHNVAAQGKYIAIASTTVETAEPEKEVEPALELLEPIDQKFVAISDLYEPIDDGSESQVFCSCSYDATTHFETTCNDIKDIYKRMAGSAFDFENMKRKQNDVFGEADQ
UniProt P49717: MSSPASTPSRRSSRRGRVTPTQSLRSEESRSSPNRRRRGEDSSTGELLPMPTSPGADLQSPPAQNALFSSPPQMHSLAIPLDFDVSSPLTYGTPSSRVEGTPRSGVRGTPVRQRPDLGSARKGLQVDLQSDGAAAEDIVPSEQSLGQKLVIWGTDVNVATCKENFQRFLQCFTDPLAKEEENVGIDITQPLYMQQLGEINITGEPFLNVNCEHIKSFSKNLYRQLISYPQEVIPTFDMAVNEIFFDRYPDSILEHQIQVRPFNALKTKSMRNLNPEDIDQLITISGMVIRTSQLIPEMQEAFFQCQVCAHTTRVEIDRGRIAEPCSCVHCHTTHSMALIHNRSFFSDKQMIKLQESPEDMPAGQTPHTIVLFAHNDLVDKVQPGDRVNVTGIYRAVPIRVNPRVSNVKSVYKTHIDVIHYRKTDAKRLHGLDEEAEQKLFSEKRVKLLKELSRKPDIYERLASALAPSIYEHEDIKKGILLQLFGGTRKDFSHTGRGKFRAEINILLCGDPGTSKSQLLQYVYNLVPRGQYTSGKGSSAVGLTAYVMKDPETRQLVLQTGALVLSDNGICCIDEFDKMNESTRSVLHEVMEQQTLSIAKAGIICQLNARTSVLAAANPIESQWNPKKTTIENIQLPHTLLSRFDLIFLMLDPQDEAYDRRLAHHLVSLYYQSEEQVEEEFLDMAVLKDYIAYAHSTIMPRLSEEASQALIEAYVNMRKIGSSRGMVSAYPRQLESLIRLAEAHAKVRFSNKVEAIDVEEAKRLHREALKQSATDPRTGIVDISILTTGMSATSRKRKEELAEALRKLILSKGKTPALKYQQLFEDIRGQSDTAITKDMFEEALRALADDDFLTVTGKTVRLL
UniProt P40630: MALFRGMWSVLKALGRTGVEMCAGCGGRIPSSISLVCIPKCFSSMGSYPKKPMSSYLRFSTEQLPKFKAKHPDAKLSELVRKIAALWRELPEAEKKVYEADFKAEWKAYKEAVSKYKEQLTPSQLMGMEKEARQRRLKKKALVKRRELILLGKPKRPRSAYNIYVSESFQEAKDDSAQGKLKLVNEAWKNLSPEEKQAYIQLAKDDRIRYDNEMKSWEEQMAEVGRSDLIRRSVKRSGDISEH
UniProt P48725: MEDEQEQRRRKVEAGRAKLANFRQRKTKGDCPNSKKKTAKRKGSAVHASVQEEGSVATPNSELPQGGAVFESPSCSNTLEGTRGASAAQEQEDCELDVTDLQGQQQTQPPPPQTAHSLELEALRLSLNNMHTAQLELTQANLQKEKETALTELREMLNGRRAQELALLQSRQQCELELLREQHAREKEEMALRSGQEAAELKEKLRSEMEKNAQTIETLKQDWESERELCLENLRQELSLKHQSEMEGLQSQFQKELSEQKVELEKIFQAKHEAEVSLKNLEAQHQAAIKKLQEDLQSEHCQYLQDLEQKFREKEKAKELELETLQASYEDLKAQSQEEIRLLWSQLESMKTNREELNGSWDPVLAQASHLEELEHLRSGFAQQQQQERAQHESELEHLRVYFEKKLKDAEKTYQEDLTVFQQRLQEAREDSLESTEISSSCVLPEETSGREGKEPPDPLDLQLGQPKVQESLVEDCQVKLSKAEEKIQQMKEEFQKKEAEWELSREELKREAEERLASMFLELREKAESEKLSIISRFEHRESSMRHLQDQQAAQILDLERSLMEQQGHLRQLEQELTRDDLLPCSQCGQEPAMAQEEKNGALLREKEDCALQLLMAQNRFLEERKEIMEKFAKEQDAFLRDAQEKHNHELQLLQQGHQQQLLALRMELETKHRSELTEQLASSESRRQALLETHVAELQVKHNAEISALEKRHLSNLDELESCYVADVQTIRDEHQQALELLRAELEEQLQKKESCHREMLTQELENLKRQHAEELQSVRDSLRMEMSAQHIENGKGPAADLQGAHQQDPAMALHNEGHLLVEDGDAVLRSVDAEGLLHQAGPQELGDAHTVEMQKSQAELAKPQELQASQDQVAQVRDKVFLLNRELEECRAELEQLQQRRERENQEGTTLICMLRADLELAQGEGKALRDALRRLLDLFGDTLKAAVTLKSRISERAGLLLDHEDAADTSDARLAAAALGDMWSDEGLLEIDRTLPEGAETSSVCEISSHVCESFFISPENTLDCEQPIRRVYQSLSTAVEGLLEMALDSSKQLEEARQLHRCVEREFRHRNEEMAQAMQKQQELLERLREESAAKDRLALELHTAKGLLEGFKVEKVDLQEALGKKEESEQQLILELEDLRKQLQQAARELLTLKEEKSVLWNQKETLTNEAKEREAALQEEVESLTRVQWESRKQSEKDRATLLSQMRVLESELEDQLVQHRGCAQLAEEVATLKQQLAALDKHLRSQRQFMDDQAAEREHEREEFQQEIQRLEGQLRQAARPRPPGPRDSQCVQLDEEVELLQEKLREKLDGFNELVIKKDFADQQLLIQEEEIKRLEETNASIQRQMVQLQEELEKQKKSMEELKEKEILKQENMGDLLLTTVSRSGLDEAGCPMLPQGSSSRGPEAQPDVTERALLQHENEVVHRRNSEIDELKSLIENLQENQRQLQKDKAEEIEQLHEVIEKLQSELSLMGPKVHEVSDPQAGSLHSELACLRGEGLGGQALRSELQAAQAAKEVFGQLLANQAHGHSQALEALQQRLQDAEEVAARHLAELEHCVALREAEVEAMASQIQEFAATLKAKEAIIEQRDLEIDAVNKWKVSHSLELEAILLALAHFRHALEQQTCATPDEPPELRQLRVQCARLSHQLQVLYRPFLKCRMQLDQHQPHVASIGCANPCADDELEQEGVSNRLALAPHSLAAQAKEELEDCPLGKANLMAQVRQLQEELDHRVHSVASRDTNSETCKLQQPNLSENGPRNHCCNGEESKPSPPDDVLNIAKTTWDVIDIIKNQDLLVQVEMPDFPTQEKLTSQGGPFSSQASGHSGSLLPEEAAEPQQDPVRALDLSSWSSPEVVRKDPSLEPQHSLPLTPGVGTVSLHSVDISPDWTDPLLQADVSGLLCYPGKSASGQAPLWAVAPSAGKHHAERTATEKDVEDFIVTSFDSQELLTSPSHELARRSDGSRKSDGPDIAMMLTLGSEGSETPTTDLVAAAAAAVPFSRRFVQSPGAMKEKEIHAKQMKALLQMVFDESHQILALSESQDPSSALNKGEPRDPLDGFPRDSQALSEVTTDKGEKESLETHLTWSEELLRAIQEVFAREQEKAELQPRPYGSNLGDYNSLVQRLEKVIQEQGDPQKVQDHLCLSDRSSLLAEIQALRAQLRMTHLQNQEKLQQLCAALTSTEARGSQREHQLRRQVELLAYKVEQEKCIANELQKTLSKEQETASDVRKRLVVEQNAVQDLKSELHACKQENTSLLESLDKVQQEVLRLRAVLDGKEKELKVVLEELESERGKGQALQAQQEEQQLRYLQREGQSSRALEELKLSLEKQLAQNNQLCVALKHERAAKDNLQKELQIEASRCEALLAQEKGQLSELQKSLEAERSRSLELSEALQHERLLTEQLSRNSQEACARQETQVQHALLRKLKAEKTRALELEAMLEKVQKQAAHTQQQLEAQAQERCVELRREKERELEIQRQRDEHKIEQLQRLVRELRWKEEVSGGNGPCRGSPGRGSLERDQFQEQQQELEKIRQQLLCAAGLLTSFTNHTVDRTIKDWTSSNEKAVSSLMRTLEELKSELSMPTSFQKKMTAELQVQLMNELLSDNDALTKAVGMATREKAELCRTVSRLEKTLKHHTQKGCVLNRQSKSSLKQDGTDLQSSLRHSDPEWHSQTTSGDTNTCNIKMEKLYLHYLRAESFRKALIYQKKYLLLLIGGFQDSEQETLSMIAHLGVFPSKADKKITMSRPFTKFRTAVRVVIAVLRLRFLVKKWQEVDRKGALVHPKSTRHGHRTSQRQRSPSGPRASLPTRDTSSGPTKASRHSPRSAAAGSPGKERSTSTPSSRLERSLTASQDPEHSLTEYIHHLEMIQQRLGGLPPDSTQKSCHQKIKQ
UniProt P49442: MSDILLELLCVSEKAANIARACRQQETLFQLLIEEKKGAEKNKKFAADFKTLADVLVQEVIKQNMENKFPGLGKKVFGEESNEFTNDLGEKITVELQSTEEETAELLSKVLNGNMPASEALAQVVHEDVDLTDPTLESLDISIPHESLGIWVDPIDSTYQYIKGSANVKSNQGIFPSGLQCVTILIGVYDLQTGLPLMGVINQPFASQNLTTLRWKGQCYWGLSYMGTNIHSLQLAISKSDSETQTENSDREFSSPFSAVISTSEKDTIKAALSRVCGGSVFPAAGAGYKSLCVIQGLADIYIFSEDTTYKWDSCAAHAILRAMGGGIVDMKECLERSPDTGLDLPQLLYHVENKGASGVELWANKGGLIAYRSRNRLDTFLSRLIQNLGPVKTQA

Compound in this experiment: CN[C@@H]1C[C@H]2O[C@@](C)([C@@H]1OC)n1c3ccccc3c3c4c(c5c6ccccc6n2c5c31)C(=O)NC4 [staurosporine]
As to the kind of experiment: log2 fold change of tryptic peptide abundance, ligand vs vehicle (limited proteolysis) (log2 ratio); higher = more trypsin-susceptible (destabilized). The note with it: ligand concentration: 20 uM; sample: mouse liver crude lysate; replicate design: treated separately.
On to “UniProt P52912 (peptide sequence: TNWATRKPPAPK, peptide start residue: 187)”, for which the log2 fold change is -0.462. Then “UniProt P39654 (peptide sequence: RQAVMVPLGQHSEEHFPNPEAK, peptide start residue: 600)”, with 0.305; and “UniProt P50396 (peptide sequence: MLLYTEVTR, peptide start residue: 90)”, with 0.412. Then “UniProt P49717 (peptide sequence: LSEEASQALIEAYVNMRK, peptide start residue: 701)”, with -0.22; and “UniProt P40630 (peptide sequence: AYKEAVSK, peptide start residue: 108)”, with -0.137; and “UniProt P48725 (peptide sequence: LQSELSLMGPK, peptide start residue: 1474)”, with -0.729. With “UniProt P35979 (peptide sequence: ALKEPPRDR, peptide start residue: 84)”, the log2 fold change was 0.23. Then “UniProt P49442 (peptide sequence: QNMENKFPGLGKK, peptide start residue: 63)”, with -0.749.

These data come from the supplement of paper PMC12819154, “High-throughput peptide-centric local stability assay extends protein–ligand identification to membrane proteins, tissues and bacteria” (Nature Structural & Molecular Biology, 2025).
